No constants are given. Whether binding was seen depends on the method and setting. Binding seen in cells or lysates may run through a third protein. Some binding calls cover weakened binding; strength is not graded here. For some assays here: Sequences can lack the tags named with a protein.

One test has as its target T1, HA-CCDC88B (UniProt Q4QRL3).
T1 sequence: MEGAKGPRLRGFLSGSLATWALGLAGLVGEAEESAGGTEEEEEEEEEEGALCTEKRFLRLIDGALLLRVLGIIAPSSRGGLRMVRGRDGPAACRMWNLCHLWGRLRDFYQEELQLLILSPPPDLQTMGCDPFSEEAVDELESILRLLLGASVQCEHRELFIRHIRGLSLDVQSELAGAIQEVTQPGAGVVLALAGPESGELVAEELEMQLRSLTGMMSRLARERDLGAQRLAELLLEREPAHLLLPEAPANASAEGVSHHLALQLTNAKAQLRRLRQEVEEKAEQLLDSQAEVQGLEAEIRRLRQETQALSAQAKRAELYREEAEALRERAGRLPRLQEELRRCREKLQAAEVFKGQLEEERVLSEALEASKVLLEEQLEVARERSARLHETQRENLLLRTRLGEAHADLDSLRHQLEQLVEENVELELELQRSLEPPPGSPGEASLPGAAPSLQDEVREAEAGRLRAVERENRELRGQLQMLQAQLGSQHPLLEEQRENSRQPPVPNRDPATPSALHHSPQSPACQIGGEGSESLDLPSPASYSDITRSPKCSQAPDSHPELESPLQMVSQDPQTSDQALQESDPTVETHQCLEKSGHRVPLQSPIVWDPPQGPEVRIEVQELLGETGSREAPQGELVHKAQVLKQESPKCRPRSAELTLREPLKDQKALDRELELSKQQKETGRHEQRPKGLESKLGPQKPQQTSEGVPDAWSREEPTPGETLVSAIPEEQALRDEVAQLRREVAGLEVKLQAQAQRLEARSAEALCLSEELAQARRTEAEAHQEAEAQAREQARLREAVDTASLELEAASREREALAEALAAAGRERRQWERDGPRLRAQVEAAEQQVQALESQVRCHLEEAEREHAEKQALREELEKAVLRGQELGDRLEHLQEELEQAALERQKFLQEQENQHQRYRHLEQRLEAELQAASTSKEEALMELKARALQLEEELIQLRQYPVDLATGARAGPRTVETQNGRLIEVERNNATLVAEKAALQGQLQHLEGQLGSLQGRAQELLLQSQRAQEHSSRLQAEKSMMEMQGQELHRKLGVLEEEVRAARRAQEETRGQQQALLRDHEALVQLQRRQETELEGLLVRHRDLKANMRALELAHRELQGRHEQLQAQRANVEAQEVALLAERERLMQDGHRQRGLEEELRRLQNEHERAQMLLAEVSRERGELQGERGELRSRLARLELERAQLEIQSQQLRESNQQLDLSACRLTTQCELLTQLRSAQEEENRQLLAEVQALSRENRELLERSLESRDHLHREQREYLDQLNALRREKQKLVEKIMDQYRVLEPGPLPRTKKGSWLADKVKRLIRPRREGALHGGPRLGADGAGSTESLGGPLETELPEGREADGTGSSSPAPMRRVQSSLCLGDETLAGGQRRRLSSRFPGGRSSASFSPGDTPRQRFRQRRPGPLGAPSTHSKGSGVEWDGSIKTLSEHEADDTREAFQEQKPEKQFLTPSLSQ
Put plainly: co-IP; HEK293T transiently co-transfected pairwise; RIPA lysis buffer (20 mM Tris-HCl pH 7.5, 200 mM NaCl, 1% NP-40); IP with anti-FLAG and blot with anti-HA, or IP with anti-CCDC88B anti-serum and blot with anti-FLAG.

The target of test [1] is T2, CCDC88B (mouse (endogenous in thymus, BI-141 T cells and BMDCs)) (UniProt Q4QRL3).
T2 sequence: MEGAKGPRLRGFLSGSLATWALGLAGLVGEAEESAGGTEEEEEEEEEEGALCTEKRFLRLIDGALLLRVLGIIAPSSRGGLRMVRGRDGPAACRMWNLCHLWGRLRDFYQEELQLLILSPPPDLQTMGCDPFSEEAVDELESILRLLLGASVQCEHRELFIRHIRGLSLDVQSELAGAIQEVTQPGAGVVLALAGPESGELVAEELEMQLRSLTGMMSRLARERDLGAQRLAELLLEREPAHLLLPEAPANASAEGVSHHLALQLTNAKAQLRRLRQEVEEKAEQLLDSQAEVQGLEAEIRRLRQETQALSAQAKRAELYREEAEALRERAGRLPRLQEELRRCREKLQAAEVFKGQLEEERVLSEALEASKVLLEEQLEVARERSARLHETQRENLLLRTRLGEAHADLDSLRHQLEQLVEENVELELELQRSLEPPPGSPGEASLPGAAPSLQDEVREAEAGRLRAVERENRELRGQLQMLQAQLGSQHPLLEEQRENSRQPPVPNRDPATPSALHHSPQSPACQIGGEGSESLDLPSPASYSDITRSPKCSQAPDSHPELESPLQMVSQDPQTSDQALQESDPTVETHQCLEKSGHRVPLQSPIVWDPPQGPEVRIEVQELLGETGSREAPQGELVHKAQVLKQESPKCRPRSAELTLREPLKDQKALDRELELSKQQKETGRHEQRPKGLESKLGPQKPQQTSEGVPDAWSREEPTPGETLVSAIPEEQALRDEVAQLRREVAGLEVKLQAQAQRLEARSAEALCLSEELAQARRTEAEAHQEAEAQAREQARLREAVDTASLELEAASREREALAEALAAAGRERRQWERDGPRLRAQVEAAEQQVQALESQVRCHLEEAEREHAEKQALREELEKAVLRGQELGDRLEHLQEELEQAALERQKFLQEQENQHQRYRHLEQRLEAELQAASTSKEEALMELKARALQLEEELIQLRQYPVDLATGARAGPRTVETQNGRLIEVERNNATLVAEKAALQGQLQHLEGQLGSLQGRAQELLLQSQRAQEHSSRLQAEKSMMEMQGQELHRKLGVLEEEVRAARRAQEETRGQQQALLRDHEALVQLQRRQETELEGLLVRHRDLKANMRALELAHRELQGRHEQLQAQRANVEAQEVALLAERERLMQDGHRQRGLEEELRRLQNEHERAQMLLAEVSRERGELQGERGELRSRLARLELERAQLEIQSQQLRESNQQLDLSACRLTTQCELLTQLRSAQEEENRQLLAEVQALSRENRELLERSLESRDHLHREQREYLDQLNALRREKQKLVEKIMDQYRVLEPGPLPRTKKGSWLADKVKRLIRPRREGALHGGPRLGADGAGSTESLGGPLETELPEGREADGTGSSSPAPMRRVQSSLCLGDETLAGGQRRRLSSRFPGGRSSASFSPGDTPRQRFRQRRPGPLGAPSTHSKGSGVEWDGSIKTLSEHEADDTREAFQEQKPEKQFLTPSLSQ
Put plainly: co-IP; BMDC lysates (20 mM HEPES pH 7.4, 300 mM NaCl, 1% NP-40); IP overnight with anti-CCDC88B anti-serum, protein A/G magnetic particles; blot for RASAL3 or ARHGEF2; Ccdc88b^Mut BMDCs as control.

B1: ARHGEF2-FLAG (protein, UniProt Q60875 1-985)
chain: MSRIESLTRARIDRSKEQATKTREKEKMKEAKDARYTNGHLFTTISVSGMTMCYACNKSITAKEALICPTCNVTIHNRCKDTLANCTKVKQKQQKAALLRNNTALQSVSLRSKTTTRERPTSAIYPSDSFRQSLLGSRRGLSSLSLAKSVSTTNIAGHFNDESPLGLRQILSQSTDSLNMRNRTLSVESLIDEGVEVFYNELMSDFEMDEKDFEADSWSLAVDSSFLQQHKKEVMKKQDVIYELIQTELHHVRTLKIMTRLFRTGMLEELQMEPEVVQGLFPCVDELSDIHTRFLNQLLERRRQALCPGSTRNFVIHRLGDLLISQFSGSNAEQMRKTYSEFCSRHTKALKLYKELYARDKRFQQFIRKMTRSAVLKRHGVQECILLVTQRITKYPVLINRILQNSHGVEEEYQDLASALGLVKELLSNVDQDVHELEKEARLQEIYNRMDPRAQTPVPGKGPFGRDELLRRKLIHEGCLLWKTATGRFKDVLLLLMTDVLVFLQEKDQKYIFTSLDKPSVVSLQNLIVRDIANQAKGMFLISSGPPEMYEVHAASRDDRTTWIRVIQQSVRLCPSREDFPLIETEDKAYLRRIKTKLQQKNQALVELLQKNVELFAEMVHFQALKAGFVGMPPPALPRGLFRLESFESLRGERLLKDALREVEGLKDLLLGPCVDLPMTSREPALPLDSDSGSCPGVTANGEARTFNGSIELCRADSDSSQKDRNGNQLRSPQEEVLQPLINLYGLLHGLQAVVVQQERLMEALFPEGPERWEKLSRANSRDGEAGRAAVASVTPEKQATELALLQRQHTLLQEELRRCQRLGEERATEAGSLEARLRESEQARALLEREAEEIRRQLAALGQNEPLPAEAPWARRPLDPRRRSLPAGDALYLSFNPPQPSRGHDRLDLPVTVRSLHRPFDDREAQELGSPEDRLQDSSDPDTGSEEEVSSRLSPPHSPRDFTRMQDIPEETESRDGEPTASES
For the molecule B1, the binding entry in the test with HA-CCDC88B is given as “binds”.

B2: Rho/Rac Guanine Nucleotide Exchange Factor 2 (ARHGEF2) (protein, UniProt Q60875 1-985)
chain: MSRIESLTRARIDRSKEQATKTREKEKMKEAKDARYTNGHLFTTISVSGMTMCYACNKSITAKEALICPTCNVTIHNRCKDTLANCTKVKQKQQKAALLRNNTALQSVSLRSKTTTRERPTSAIYPSDSFRQSLLGSRRGLSSLSLAKSVSTTNIAGHFNDESPLGLRQILSQSTDSLNMRNRTLSVESLIDEGVEVFYNELMSDFEMDEKDFEADSWSLAVDSSFLQQHKKEVMKKQDVIYELIQTELHHVRTLKIMTRLFRTGMLEELQMEPEVVQGLFPCVDELSDIHTRFLNQLLERRRQALCPGSTRNFVIHRLGDLLISQFSGSNAEQMRKTYSEFCSRHTKALKLYKELYARDKRFQQFIRKMTRSAVLKRHGVQECILLVTQRITKYPVLINRILQNSHGVEEEYQDLASALGLVKELLSNVDQDVHELEKEARLQEIYNRMDPRAQTPVPGKGPFGRDELLRRKLIHEGCLLWKTATGRFKDVLLLLMTDVLVFLQEKDQKYIFTSLDKPSVVSLQNLIVRDIANQAKGMFLISSGPPEMYEVHAASRDDRTTWIRVIQQSVRLCPSREDFPLIETEDKAYLRRIKTKLQQKNQALVELLQKNVELFAEMVHFQALKAGFVGMPPPALPRGLFRLESFESLRGERLLKDALREVEGLKDLLLGPCVDLPMTSREPALPLDSDSGSCPGVTANGEARTFNGSIELCRADSDSSQKDRNGNQLRSPQEEVLQPLINLYGLLHGLQAVVVQQERLMEALFPEGPERWEKLSRANSRDGEAGRAAVASVTPEKQATELALLQRQHTLLQEELRRCQRLGEERATEAGSLEARLRESEQARALLEREAEEIRRQLAALGQNEPLPAEAPWARRPLDPRRRSLPAGDALYLSFNPPQPSRGHDRLDLPVTVRSLHRPFDDREAQELGSPEDRLQDSSDPDTGSEEEVSSRLSPPHSPRDFTRMQDIPEETESRDGEPTASES
For the molecule B2, the binding entry in test [1] is “binds”.

The values are drawn from publication PMC10781698.
